These are yes or no findings as the source states them, for the method shown. Binding seen in cells or lysates may run through a third protein. Some results given as binding are weak or reduced against the parent protein; the word gives no strength.
Target: HA-CDH1 (UniProt Q9UM11)
Experiment: co-IP; HEK293T cells co-transfected with both tagged proteins for 24 h; about 3 mg lysate (50 mM Tris-HCl, 150 mM NaCl, 1% Triton X-100, 1 mM EDTA, pH 7.5) with Flag-agarose or HA-agarose beads, 4 h at 4 °C; immunoblot

Sequences of proteins named here, by UniProt entry; tags and fusion partners are left off.
UniProt Q9UM11: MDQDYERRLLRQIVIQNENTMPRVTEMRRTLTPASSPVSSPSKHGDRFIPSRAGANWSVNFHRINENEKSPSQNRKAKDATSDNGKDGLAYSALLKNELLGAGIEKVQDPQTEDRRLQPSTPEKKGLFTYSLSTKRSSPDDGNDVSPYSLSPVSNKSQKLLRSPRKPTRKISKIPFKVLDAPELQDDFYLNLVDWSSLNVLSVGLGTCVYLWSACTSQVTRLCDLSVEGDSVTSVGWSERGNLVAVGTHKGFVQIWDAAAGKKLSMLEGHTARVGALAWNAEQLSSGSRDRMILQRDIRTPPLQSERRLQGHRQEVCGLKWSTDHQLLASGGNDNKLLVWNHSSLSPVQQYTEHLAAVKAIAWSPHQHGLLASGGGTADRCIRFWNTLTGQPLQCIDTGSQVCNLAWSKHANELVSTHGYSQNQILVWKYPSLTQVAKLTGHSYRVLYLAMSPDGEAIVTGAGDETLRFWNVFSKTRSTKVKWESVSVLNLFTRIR
UniProt Q96GD4: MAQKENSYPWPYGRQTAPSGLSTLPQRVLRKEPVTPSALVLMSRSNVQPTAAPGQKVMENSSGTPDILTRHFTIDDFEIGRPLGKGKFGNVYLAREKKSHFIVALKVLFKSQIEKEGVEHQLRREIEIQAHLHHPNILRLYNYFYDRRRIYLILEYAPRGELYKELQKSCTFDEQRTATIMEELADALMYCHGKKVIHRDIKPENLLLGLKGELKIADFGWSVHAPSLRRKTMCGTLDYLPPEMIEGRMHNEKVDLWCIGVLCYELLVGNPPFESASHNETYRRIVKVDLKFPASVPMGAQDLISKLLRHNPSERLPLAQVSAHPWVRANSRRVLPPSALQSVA

Q: Which binding does the source give for “Myc-Aurora B (from UniProt Q96GD4 1-344) (enzyme)” here?
A: The binding was “binds”.
